One substance from PMC8718910 can be followed below.

The target in this assay is T1, rat nucleosome assembly protein 1 like 5 (rNap1l5-Flag) (rat) (UniProt Q5PPG6).
T1 sequence: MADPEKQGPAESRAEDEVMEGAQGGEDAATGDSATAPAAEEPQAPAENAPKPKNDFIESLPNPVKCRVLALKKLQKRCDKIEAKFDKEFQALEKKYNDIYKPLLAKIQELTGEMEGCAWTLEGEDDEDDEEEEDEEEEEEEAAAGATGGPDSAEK
The assay is described as follows: co-IP; HEK293T cells co-transfected with the plasmids; IP buffer 50mM Tris-HCl (pH 8.0), 150mM NaCl, 2mM EDTA, 1% NP-40, 5% glycerol; 1 μg antibody and protein A/G-agarose beads at 4°C overnight; blotted with the indicated primary antibodies.

No constants are given. Whether binding was seen depends on the method and setting. Binding seen in cells or lysates may run through a third protein. Tags and fused reporters may be left off the sequences shown.

Regarding “rat SDA1 domain containing 1 (SDAD1-HA) (from UniProt Q5XIQ5 1-686)”, the binding result was “no binding”.
